Measured values as given in the supplement of paper PMC12873370.
Where “and” joins values, the source holds several entries; their conditions need not be identical. Equal values may be shown once. Some of the results follow. Many values rest on one well or one pass, so single values are uncertain.

What was measured:
[1] = test system: MEPP (mouse ovarian epithelium Trp53/Pten KO); assay: cell viability relative to untreated (fraction); higher = less growth inhibition; conditions: 5 µM; 3 days
[2] = test system: PREPP (mouse prostate epithelium Trp53/Pten KO); assay: as above; conditions: 5 µM; 3 days

SMILES	cell viability [1]	cell viability [2]
COc1ccc(C=O)cc1OC	1.02	0.82
C1=C2CCCN[C@H]2[C@@H]2C[C@H]1[C@H]1CCCCN1C2	1.06	0.821
CC[C@H]1CN2CC[C@H]1C[C@@H]2[C@@H](O)c1ccnc2ccc(OC)cc12	0.844	0.993
CC(=O)OC(C)(C)/C=C/C(=O)[C@](C)(O)[C@H]1[C@H](O)C[C@@]2(C)[C@@H]3CC=C4[C@@H](C[C@H](O)C(=O)C4(C)C)[C@]3(CO)C(=O)C[C@]12C	0.868	0.941
COc1ccc2c(c1OC)CN1CCc3cc4c(cc3C1C2)OCO4 (configuration not stated)	0.951	1.02
O=c1[nH]c2ccccc2o1	1.03	1.03
C=C1[C@@H]2CCC3[C@@](CC[C@@H]4[C@H](C(=O)O)C[C@@H](O[C@@H]5O[C@H](CO)[C@@H](OS(=O)(=O)O)[C@H](OS(=O)(=O)O)[C@H]5OC(=O)CC(C)C)C[C@@]34C)(C2)[C@@H]1O (some centres not stated)	0.899	0.856
Cc1ccccc1O	1.17	0.951
O=C(O)Cc1cnc[nH]1	0.824	0.973
C=C1CC[C@H]2[C@@H](/C=C(\C)C(=O)[C@@]3(OC(C)=O)C[C@H](C)[C@H](OC(=O)c4ccccc4)[C@@H]3[C@H]1OC(C)=O)C2(C)C	1.29	1.13
CC(C)[C@]12O[C@H]1[C@@H]1O[C@]13[C@]1(O[C@H]1C[C@H]1C4=C(CC[C@@]13C)C(=O)OC4)[C@@H]2O	0.539	0.547
c1csc(-c2ccc(-c3cccs3)s2)c1	0.9	0.951
O=C(O)CC[N+](=O)[O-]	1.1	0.904
CO[C@@H]1C[C@@H](C[C@H]2CC[C@H](C)[C@H]([C@@H](C)C(=O)O)O2)O[C@]2(O[C@](C)([C@H]3CC[C@@](C)([C@@H]4O[C@@H]([C@H]5O[C@@](O)(CO)[C@H](C)C[C@@H]5C)C[C@@H]4C)O3)C[C@H]2C)[C@@H]1C	0.398	0.243
C[C@@H]1CC[C@@]2(OC1)O[C@H]1C[C@H]3[C@@H]4CC=C5C[C@@H](O[C@@H]6O[C@H](CO)[C@@H](O[C@@H]7O[C@@H](C)[C@H](O)[C@@H](O)[C@H]7O)[C@H](O)[C@H]6O[C@@H]6O[C@@H](C)[C@H](O)[C@@H](O)[C@H]6O)CC[C@]5(C)[C@H]4CC[C@]3(C)[C@H]1[C@@H]2C	0.624	0.766
O=c1ccc2cc(O[C@@H]3O[C@H](CO)[C@@H](O)[C@H](O)[C@H]3O)c(O)cc2o1	0.827	1
O=c1ccc2ccc3occc3c2o1	1.09	1.26
COc1cc2c3cc1Oc1c(OC)c(OC)cc4c1[C@@H](Cc1cccc(c1)Oc1ccc(c(O)c1)C[C@@H]3N(C)CC2)N(C)CC4	0.915	0.858
CN(C)CCc1ccc(O)cc1	1.26	0.953
C[C@@H]1C[C@@H]([C@H](O)CC2CC(=O)NC(=O)C2)C(=O)[C@@H](C)C1	0.509	0.504
CC(=O)OC(C)(C)/C=C/C(=O)[C@](C)(O)[C@H]1[C@H](O)C[C@@]2(C)[C@@H]3CC=C4[C@H](C[C@H](O)C(=O)C4(C)C)[C@]3(C)C(=O)C[C@]12C	0.912 and 0.651	0.902 and 0.614
CC(C)=CCC[C@@](C)(O)[C@H]1CC[C@]2(C)[C@@H]1[C@H](O)C[C@@H]1[C@@]3(C)CC[C@H](O[C@@H]4O[C@H](CO)[C@@H](O)[C@H](O)[C@H]4O)C(C)(C)[C@@H]3CC[C@]12C	1.03	1

SMILES	cell viability [1]	cell viability [2]
C[C@]12CC[C@H](O)C[C@@H]1CC[C@@H]1[C@@H]2CC[C@]2(C)C(=O)CC[C@@H]12	0.921	0.877
CC1=CC(=O)c2c(O)cccc2C1=O	0.938	0.939
C=C(C)[C@@H]1[C@H]2OC(=O)[C@@H]1[C@]1(O)C[C@H]3OC34C(=O)O[C@H]2[C@@]41C.CC(C)(O)[C@@H]1[C@H]2OC(=O)[C@@H]1[C@]1(O)C[C@H]3OC34C(=O)O[C@H]2[C@@]41C (some centres not stated)	1.08	1.05
CN1[C@@H]2C[C@@H](OC(=O)[C@H](CO)c3ccccc3)C[C@H]1[C@@H]1O[C@@H]12	1.13 and 0.897 and 1	0.966 and 0.954 and 1.06
O=C/C=C/c1ccccc1	1.3 and 1.56	0.978 and 0.994
COc1cc(CCN)ccc1O	1.23	0.829
NCCc1c[nH]c2ccccc12	0.991	0.986
CC[C@@]1(O)C(=O)OCc2c1cc1n(c2=O)Cc2cc3ccccc3nc2-1	0.64	0.495
CCCCCCC(=O)O[C@H]1CC[C@H]2[C@@H]3CCC4=CC(=O)CC[C@]4(C)[C@H]3CC[C@]12C	1.04	1
CN(C)Cc1c[nH]c2ccccc12	0.977	0.932
NCCP(=O)(O)O	0.847	1.14
O=C(O)C1CCN1 (configuration not stated)	0.971	1.07
NCC1(CC(=O)O)CCCCC1	1.13	0.902
COc1cc(C(=O)O[C@H]2[C@@H]3C=CO[C@@H](O[C@@H]4O[C@H](CO)[C@@H](O)[C@H](O)[C@H]4O)[C@@H]3[C@@]3(CO)O[C@@H]23)ccc1O	0.998	0.755
O=C1CCCN1	0.837	0.931
CC(C)(C)NCC(O)c1cc(Cl)c(N)c(Cl)c1 (configuration not stated)	0.937	0.897
O=C1C=CC[C@@H]2[C@H]3CCC[N+]4([O-])CCC[C@@H](CN12)[C@@H]34 (some centres not stated)	1.71	0.886
c1c2c(cc3c1OCO3)-c1cc3ccc4c(c3c[n+]1CC2)OCO4	1.01	0.859
C=C[C@H]1[C@H](O[C@@H]2O[C@H](CO)[C@@H](O)[C@H](O)[C@H]2O)OC=C2C(=O)OCC[C@H]21	1.29	1
COC(=O)C1=CCCN(C)C1	0.753	0.913
CC1=C2C[C@H]3[C@@H](CC=C4C[C@@H](O)CC[C@@]43C)[C@@H]2CC[C@]12O[C@@H]1C[C@H](C)CN[C@H]1[C@H]2C	0.991	0.963
CCCCCCCCC(=O)NCc1ccc(O)c(OC)c1	1.2	0.811

SMILES	cell viability [1]	cell viability [2]
C[C@@H]1[C@H](O)[C@@H](C)/C=C/C=C/CC/C=C/C=C/C=C/C=C/[C@H](O[C@H]2O[C@@H](C)[C@H](O)[C@@H](N)[C@H]2O)C[C@@H]2O[C@](O)(C[C@@H](O)[C@H](O)CC[C@@H](O)C[C@@H](O)C[C@@H](O)CC(=O)O[C@H]1C)C[C@H](O)[C@H]2C(=O)O	0.906	1.04
C[C@]12CC[C@@H](O)C[C@@H]1CC[C@@H]1[C@@H]2CC[C@]2(C)C(=O)CC[C@@H]12	0.977	0.696
O=C1C=CC(=O)c2c(O)cccc21	1.09	0.744
COC(=O)[C@]1(C)CC[C@]2(C)CC[C@]3(C)C4=CC=C5C(=CC(=O)C(O)=C5C)[C@]4(C)CC[C@@]3(C)[C@@H]2C1	0.46	0.717
CC(C)c1cc2c(c(O)c1O)[C@@]1(C(=O)O)CCCC(C)(C)[C@@H]1CC2	1.15	1.27
NCC(O)c1ccc(O)cc1 (configuration not stated)	0.893	0.962
O=C1C=CC[C@@H]2[C@H]3CCCN4CCC[C@@H](CN12)[C@@H]34	0.867	0.91
CC[C@@]1([C@H]2O[C@H]([C@H]3O[C@@](O)(CO)[C@H](C)C[C@@H]3C)C[C@H]2C)CC[C@H]([C@@]2(C)CC[C@]3(C[C@H](O)[C@@H](C)[C@@H]([C@H](C)[C@H](OC)[C@@H](C)C(=O)O)O3)O2)O1	0.597	0.615
COc1cc(C(=O)O)cc(OC)c1OC	0.87	1.02
C[C@]12CCC(=O)C[C@@H]1CC[C@@H]1[C@@H]2CC[C@]2(C)[C@@H](O)CC[C@@H]12	0.843	0.91
C[C@]12CC[C@H](O)C[C@H]1CC[C@@H]1[C@@H]2CC[C@]2(C)[C@@H](c3ccc(=O)oc3)CC[C@]12O	0.981	0.847
Cc1cc2c(C(C)C)c(O)c(O)c(C=O)c2c(O)c1-c1c(C)cc2c(C(C)C)c(O)c(O)c(C=O)c2c1O	1.14 and 0.987	0.816 and 0.854
CC1=C(C(=O)Nc2ccccc2)SCCO1	0.909	1.04
CC(C)=CCOc1c2occc2cc2ccc(=O)oc12	1.07	1.24
NCCc1ccc(O)cc1	1.12	0.81
CCC1=C[C@H]2CN3CCc4c([nH]c5ccccc45)[C@](C(=O)OC)(C2)[C@H]13	1.47	0.957
O=C(O)c1ccc(=O)[nH]c1	0.994	0.905
O=C1C=CC(=O)c2ccccc21	1.02	0.852
O=C(O)CCCCCCCCCO	0.86	1.24
CC1=C2[C@H]3OC(=O)[C@@H](C)[C@@H]3CC[C@@]2(C)C=CC1=O	1.04	1.15
NCCc1ccccc1	0.867	0.934
CC[C@H]1CN2CC[C@]3(C(=O)Nc4ccccc43)[C@@H]2C[C@@H]1/C(=C\OC)C(=O)OC	0.972	1.19

5 neighbouring records already listed, quoted:
SMILES	cell viability [1]	cell viability [2]
CC(C)c1cc2c(c(O)c1O)[C@@]1(C(=O)O)CCCC(C)(C)[C@@H]1CC2	1.15	1.27
NCC(O)c1ccc(O)cc1 (configuration not stated)	0.893	0.962
O=C1C=CC[C@@H]2[C@H]3CCCN4CCC[C@@H](CN12)[C@@H]34	0.867	0.91
CC[C@@]1([C@H]2O[C@H]([C@H]3O[C@@](O)(CO)[C@H](C)C[C@@H]3C)C[C@H]2C)CC[C@H]([C@@]2(C)CC[C@]3(C[C@H](O)[C@@H](C)[C@@H]([C@H](C)[C@H](OC)[C@@H](C)C(=O)O)O3)O2)O1	0.597	0.615
COc1cc(C(=O)O)cc(OC)c1OC	0.87	1.02
